In publication PMC11024343:

Molecular target: HA-CagF (H. pylori)
Assay: affinity purification with mass spectrometry; HA-CagF captured from H. pylori lysate (RIPA buffer) with anti-HA antibodies on protein G Dynabeads, eluted with HA peptide; LC-MS/MS of the preparations; WT (two experiments), ∆cagT and ∆cagM strains

B1: CagY (protein, UniProt D3XNT5 1-77)
chain: MGNANEVRDKFIQNYATSLKDSNDPQDFLRRVQELRINMQKNFISFDAYYNYLNNLVLASYTSLQTRKDFCRKHDQK
B1 was tested. Which binding did it give?
Its binding is “binds”.

No constants are given. Whether binding was seen depends on the method and setting. Binding seen in cells or lysates may run through a third protein. A yes stands for co-enrichment or nearness to the bait. Other partners may have been found.
